No constants are given. Whether binding was seen depends on the method and setting. In cells and extracts the contact can be indirect. Some results given as binding are weak or reduced against the parent protein; the word gives no strength. Tags and fused reporters may be left off the sequences shown.
Columns and labels:
Strep-TSG101 = Strep-TSG101 (UniProt Q99816); experiment: co-IP
Flag-Alix = Flag-Alix (UniProt Q8WUM4); experiment: co-IP; 293T cells co-transfected with HA-CHMP4B and Flag-tagged Alix forms; lysates incubated with anti-Flag antibody-conjugated beads; western blot
Flag-Alix, Q8WUM4 = biological target: T1, Flag-Alix, Q8WUM4; experiment: co-IP; 293T cells co-transfected with HA-tagged Alix, DUb-Alix or DUb*-Alix and Flag-Alix or Flag-tagged Alix fragments; HA-tagged proteins immunoprecipitated on HA-antibody conjugated beads; western blot; details: remark: other sources report otherwise
T1 chain: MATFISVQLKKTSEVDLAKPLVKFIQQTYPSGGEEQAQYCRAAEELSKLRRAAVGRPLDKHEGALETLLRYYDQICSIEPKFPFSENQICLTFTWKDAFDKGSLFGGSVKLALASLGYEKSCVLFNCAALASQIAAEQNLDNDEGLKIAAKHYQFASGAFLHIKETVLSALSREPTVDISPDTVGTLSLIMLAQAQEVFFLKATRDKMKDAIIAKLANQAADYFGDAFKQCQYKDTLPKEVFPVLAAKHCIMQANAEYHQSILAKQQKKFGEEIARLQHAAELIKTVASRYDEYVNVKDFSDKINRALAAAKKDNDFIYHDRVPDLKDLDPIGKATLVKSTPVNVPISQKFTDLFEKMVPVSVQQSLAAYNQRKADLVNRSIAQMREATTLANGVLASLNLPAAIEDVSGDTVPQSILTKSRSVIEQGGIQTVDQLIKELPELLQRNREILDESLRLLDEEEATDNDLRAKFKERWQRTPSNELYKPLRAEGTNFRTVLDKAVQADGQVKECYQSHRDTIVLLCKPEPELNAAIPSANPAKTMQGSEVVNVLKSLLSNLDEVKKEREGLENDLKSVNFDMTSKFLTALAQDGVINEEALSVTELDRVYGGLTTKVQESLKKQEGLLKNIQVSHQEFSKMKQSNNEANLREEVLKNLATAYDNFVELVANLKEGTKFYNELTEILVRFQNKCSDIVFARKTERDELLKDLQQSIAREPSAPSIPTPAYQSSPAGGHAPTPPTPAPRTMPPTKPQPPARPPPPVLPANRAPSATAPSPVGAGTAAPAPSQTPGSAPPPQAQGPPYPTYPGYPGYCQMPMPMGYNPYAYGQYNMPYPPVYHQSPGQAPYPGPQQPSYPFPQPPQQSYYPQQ

B1: Flag-tagged MVB12B (protein, UniProt Q9H7P6 1-319)
chain: MRSCFCVRRSRDPPPPQPPPPPPQRGTDQSTMPEVKDLSEALPETSMDPITGVGVVASRNRAPTGYDVVAQTADGVDADLWKDGLFKSKVTRYLCFTRSFSKENSHLGNVLVDMKLIDIKDTLPVGFIPIQETVDTQEVAFRKKRLCIKFIPRDSTEAAICDIRIMGRTKQAPPQYTFIGELNSMGIWYRMGRVPRNHDSSQPTTPSQSSAASTPAPNLPRHISLTLPATFRGRNSTRTDYEYQHSNLYAISAMDGVPFMISEKFSCVPESMQPFDLLGITIKSLAEIEKEYEYSFRTEQSAAARLPPSPTRCQQIPQS
binding (Strep-TSG101): binds

B2: HA-CHMP4B (protein, UniProt Q9H444 1-224)
chain: MSVFGKLFGAGGGKAGKGGPTPQEAIQRLRDTEEMLSKKQEFLEKKIEQELTAAKKHGTKNKRAALQALKRKKRYEKQLAQIDGTLSTIEFQREALENANTNTEVLKNMGYAAKAMKAAHDNMDIDKVDELMQDIADQQELAEEISTAISKPVGFGEEFDEDELMAELEELEQEELDKNLLEISGPETVPLPNVPSIALPSKPAKKKEEEDDDMKELENWAGSM
binding (Flag-Alix): binds

B3: Flag-Alix, Q8WUM4 1-868 (protein)
chain: MATFISVQLKKTSEVDLAKPLVKFIQQTYPSGGEEQAQYCRAAEELSKLRRAAVGRPLDKHEGALETLLRYYDQICSIEPKFPFSENQICLTFTWKDAFDKGSLFGGSVKLALASLGYEKSCVLFNCAALASQIAAEQNLDNDEGLKIAAKHYQFASGAFLHIKETVLSALSREPTVDISPDTVGTLSLIMLAQAQEVFFLKATRDKMKDAIIAKLANQAADYFGDAFKQCQYKDTLPKEVFPVLAAKHCIMQANAEYHQSILAKQQKKFGEEIARLQHAAELIKTVASRYDEYVNVKDFSDKINRALAAAKKDNDFIYHDRVPDLKDLDPIGKATLVKSTPVNVPISQKFTDLFEKMVPVSVQQSLAAYNQRKADLVNRSIAQMREATTLANGVLASLNLPAAIEDVSGDTVPQSILTKSRSVIEQGGIQTVDQLIKELPELLQRNREILDESLRLLDEEEATDNDLRAKFKERWQRTPSNELYKPLRAEGTNFRTVLDKAVQADGQVKECYQSHRDTIVLLCKPEPELNAAIPSANPAKTMQGSEVVNVLKSLLSNLDEVKKEREGLENDLKSVNFDMTSKFLTALAQDGVINEEALSVTELDRVYGGLTTKVQESLKKQEGLLKNIQVSHQEFSKMKQSNNEANLREEVLKNLATAYDNFVELVANLKEGTKFYNELTEILVRFQNKCSDIVFARKTERDELLKDLQQSIAREPSAPSIPTPAYQSSPAGGHAPTPPTPAPRTMPPTKPQPPARPPPPVLPANRAPSATAPSPVGAGTAAPAPSQTPGSAPPPQAQGPPYPTYPGYPGYCQMPMPMGYNPYAYGQYNMPYPPVYHQSPGQAPYPGPQQPSYPFPQPPQQSYYPQQ
binding (Flag-Alix, Q8WUM4): binds
